Substitutions are numbered along the chain they refer to. Read-outs that look alike come from different tables or passages of the source. No constants are given. Whether binding was seen depends on the method and setting. In cells and extracts the contact can be indirect. A yes stands for co-enrichment or nearness to the bait. Other partners may have been found. Sequences can lack the tags named with a protein. Values belong to the molecule of their own block, whether it stands above or below them.
Tests used:
Assay in all cases: proximity labelling; BioID: SCYL1-BirA variants induced in SILAC-labeled SCYL1 KO MCF-7 cells, 50 µM biotin for 18 h, lysis in RIPA buffer, streptavidin-agarose enrichment at room temperature for 2 h, quantitative LC-MS/MS against BirA-only cells
[1] = biological target: T1, SCYL1(S754A)-BirA-myc (human) (UniProt Q96KG9)
T1 sequence: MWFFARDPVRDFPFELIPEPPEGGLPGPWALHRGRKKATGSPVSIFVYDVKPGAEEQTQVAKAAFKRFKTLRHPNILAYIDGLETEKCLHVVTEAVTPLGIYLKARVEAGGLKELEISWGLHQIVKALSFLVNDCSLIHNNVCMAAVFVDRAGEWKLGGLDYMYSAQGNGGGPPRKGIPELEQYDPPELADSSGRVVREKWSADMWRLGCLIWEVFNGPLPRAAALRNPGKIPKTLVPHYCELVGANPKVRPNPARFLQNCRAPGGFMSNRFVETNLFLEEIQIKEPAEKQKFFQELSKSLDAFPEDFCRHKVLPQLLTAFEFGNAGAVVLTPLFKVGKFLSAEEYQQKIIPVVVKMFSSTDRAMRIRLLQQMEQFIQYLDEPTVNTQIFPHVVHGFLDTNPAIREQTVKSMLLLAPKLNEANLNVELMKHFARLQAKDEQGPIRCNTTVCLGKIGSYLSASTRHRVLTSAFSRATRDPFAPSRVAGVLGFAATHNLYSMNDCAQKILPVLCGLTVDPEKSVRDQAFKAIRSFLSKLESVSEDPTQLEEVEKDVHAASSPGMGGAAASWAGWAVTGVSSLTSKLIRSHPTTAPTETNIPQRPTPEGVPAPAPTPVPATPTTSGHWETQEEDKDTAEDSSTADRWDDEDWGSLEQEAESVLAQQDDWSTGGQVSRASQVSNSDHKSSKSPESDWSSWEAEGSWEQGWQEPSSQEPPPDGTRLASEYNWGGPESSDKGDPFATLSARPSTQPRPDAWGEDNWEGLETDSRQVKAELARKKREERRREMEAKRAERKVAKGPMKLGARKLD

Chains of the proteins cited; added tags and fusions are not shown. Lines headed by an entry give the natural chain unless they say otherwise; changes in a name come on top.
UniProt O95782: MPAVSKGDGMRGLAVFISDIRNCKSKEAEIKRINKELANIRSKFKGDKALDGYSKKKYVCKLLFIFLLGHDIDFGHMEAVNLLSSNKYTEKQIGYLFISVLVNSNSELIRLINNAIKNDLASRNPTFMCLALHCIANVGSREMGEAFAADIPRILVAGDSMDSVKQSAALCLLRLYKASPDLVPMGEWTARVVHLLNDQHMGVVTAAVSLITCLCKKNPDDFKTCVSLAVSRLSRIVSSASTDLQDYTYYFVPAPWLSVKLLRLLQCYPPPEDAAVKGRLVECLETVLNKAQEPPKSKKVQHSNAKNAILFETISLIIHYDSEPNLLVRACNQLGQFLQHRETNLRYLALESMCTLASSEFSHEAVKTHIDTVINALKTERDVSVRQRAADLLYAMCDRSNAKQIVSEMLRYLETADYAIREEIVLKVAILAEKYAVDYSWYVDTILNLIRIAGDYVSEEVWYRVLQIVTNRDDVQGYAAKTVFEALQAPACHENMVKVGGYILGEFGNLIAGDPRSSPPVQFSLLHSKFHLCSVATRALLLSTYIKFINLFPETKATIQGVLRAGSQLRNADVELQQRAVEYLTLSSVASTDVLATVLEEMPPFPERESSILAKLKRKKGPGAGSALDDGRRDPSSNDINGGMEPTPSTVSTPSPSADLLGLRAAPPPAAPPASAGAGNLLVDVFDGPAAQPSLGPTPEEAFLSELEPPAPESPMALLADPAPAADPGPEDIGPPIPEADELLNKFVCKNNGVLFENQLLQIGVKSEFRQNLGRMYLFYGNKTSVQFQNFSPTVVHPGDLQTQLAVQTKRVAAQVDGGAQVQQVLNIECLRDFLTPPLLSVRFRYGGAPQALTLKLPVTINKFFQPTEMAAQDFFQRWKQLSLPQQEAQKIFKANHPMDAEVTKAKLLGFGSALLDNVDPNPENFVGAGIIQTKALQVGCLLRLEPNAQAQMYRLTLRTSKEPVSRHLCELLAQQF
UniProt O94973: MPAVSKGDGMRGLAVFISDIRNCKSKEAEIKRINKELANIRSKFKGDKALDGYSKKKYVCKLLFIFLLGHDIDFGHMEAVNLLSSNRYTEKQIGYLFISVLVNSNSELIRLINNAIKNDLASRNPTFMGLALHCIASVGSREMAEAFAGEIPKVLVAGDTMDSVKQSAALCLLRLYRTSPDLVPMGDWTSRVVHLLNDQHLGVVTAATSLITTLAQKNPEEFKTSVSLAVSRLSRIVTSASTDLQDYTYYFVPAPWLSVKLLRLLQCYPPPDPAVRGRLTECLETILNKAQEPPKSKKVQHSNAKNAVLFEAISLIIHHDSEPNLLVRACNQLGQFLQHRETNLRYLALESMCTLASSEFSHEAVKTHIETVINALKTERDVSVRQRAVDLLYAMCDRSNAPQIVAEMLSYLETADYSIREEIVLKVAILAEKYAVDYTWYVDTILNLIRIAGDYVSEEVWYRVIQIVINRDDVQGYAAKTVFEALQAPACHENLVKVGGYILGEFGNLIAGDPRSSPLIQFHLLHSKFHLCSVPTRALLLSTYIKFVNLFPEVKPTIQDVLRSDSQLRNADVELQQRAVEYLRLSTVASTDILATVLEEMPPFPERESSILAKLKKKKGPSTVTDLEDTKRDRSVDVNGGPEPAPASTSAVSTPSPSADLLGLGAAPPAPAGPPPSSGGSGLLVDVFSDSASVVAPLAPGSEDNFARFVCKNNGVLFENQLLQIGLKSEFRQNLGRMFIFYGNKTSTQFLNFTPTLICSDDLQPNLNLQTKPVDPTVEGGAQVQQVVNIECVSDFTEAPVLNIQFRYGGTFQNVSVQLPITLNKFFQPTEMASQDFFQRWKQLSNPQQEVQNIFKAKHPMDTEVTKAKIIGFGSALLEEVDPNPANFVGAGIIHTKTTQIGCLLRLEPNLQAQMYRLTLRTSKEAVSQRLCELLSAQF
UniProt Q8IUD2: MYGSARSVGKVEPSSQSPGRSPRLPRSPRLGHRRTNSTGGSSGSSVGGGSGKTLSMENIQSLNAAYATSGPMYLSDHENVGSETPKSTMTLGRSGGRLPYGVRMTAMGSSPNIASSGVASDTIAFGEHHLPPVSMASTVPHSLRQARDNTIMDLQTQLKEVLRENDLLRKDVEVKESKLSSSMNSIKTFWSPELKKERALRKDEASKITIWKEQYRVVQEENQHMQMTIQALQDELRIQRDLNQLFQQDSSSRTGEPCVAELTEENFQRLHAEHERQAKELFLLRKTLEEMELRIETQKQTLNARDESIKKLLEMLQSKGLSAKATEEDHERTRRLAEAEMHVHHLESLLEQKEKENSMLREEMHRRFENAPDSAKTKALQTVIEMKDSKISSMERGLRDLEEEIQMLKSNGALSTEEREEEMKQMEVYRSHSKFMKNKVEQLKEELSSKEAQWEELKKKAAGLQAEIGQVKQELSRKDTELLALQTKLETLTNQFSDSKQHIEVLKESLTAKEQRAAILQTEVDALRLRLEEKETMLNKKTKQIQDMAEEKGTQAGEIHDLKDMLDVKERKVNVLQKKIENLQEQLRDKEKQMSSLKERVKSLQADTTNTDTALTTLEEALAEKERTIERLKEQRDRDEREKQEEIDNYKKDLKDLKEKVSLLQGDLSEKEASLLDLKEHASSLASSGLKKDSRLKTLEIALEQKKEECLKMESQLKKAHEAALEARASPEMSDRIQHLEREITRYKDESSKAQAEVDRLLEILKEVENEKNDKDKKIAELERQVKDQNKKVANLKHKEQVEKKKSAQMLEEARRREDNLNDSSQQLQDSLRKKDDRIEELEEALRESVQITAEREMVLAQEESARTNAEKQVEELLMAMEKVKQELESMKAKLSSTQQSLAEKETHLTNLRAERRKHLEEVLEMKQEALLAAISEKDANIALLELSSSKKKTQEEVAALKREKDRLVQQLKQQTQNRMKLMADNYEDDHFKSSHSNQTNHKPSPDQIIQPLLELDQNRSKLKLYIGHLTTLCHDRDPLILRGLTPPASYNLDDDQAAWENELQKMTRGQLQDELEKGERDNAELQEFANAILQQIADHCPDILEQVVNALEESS
UniProt Q16740: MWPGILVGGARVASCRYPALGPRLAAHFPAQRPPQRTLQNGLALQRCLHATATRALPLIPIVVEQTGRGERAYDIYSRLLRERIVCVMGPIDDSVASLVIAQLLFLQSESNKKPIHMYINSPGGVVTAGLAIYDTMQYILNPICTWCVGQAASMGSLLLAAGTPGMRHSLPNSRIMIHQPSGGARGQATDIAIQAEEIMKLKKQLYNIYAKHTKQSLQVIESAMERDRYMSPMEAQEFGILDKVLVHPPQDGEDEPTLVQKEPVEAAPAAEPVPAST
UniProt Q14789: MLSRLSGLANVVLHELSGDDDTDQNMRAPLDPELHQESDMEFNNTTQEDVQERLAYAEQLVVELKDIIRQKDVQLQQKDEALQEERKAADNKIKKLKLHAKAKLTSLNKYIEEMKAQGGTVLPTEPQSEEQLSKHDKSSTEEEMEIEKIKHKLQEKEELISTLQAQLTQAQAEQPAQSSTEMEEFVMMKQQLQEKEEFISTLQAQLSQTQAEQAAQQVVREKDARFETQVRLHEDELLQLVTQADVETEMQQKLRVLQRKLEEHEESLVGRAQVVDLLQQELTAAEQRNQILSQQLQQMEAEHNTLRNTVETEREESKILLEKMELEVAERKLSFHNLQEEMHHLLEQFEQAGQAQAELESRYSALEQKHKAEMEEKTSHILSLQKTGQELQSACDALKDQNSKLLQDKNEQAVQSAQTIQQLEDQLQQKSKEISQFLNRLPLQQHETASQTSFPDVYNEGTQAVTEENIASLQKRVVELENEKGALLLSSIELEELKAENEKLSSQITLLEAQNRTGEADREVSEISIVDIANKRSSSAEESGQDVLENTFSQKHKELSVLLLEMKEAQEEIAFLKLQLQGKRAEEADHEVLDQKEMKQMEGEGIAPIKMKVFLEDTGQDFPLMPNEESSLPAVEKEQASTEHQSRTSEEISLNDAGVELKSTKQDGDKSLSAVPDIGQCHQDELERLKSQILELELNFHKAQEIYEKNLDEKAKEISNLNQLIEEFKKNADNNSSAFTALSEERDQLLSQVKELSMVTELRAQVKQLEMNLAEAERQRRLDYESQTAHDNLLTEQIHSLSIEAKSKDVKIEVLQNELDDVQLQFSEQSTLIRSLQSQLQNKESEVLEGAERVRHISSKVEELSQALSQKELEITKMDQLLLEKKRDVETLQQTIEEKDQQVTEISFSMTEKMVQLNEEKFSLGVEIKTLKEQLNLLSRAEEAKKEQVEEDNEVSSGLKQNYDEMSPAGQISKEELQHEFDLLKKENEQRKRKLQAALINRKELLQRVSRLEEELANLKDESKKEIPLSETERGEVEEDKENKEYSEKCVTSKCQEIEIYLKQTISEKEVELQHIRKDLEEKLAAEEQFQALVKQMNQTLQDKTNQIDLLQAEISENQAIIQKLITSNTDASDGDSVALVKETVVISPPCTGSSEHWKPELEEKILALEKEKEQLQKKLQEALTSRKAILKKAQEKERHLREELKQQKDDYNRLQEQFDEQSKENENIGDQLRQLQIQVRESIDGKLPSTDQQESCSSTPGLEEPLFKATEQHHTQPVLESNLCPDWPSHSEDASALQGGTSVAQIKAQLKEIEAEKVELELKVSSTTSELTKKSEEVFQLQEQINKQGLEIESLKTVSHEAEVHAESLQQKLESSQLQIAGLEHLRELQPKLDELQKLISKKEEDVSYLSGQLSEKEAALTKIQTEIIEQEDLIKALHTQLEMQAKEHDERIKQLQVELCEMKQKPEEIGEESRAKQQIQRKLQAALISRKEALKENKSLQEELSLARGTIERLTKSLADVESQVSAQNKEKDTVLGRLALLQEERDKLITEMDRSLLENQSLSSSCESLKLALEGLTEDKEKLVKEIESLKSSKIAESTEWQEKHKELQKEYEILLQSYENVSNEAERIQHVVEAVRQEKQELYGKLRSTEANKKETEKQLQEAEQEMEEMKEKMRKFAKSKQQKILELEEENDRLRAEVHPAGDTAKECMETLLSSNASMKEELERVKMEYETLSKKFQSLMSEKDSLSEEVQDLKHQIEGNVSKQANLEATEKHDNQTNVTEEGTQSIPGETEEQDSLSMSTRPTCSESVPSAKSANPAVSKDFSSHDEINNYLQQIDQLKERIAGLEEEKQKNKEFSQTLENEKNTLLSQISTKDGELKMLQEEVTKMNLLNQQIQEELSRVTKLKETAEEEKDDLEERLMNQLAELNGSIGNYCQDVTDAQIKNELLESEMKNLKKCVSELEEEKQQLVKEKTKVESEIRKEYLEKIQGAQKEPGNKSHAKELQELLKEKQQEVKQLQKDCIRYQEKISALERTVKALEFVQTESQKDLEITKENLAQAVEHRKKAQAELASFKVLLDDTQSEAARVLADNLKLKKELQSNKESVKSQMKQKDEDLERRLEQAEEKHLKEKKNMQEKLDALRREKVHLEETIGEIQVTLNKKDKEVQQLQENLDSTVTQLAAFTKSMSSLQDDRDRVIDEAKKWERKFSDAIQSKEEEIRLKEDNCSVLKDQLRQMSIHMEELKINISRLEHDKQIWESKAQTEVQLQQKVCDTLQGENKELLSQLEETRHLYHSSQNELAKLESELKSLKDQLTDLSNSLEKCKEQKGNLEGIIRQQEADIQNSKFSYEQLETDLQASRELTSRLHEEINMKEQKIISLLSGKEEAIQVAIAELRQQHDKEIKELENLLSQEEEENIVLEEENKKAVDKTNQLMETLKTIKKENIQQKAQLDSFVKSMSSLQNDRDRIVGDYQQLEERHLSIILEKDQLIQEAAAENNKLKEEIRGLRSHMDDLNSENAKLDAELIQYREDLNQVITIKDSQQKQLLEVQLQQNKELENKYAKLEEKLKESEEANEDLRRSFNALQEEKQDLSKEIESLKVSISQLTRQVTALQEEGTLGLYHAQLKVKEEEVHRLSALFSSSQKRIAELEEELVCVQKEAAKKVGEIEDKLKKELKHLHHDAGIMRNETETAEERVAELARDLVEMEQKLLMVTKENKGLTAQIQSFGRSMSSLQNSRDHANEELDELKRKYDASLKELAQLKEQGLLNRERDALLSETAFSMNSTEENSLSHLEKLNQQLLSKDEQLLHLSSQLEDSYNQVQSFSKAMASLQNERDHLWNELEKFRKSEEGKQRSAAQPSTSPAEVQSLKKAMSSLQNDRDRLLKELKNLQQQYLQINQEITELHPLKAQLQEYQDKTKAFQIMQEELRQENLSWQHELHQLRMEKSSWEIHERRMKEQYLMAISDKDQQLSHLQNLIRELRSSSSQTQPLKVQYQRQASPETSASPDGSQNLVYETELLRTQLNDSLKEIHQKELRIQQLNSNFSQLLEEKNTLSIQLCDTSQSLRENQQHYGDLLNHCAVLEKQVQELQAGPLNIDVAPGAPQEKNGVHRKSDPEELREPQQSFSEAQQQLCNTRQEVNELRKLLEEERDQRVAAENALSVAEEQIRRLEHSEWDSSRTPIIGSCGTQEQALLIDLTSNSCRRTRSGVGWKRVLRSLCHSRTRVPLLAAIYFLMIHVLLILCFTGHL

[2] = biological target: T2, SCYL1(S754E)-BirA-myc (human) (UniProt Q96KG9)
T2 sequence: T1 sequence with A754E

[3] = biological target: T1, SCYL1(S754A)-BirA-myc (human); remark: listed apart in the source
[4] = biological target: T2, SCYL1(S754E)-BirA-myc (human); remark: listed apart in the source

Molecule: AP2A1 (from UniProt O95782 1-977)
binding [1]: binds
binding [2]: binds

Molecule: AP2A2 (from UniProt O94973 1-939)
binding [1]: binds
binding [2]: binds

Molecule: ERC1 (from UniProt Q8IUD2 1-1116)
binding [1]: binds
binding [2]: binds

Molecule: GOLGA4 (from UniProt Q13439 1-2230)
binding [1]: binds
binding [2]: binds

Molecule: MRPS11 (human (endogenous in MCF-7))
binding [1]: binds
binding [2]: binds

Molecule: SYNE1 (from UniProt Q8NF91 1-8797)
binding [1]: binds
binding [2]: binds

B1: MLEC (protein, UniProt Q14165 29-292)
chain: PGLGVAGVAGAAGAGLPESVIWAVNAGGEAHVDVHGIHFRKDPLEGRVGRASDYGMKLPILRSNPEDQILYQTERYNEETFGYEVPIKEEGDYVLVLKFAEVYFAQSQQKVFDVRLNGHVVVKDLDIFDRVGHSTAHDEIIPMSIRKGKLSVQGEVSTFTGKLYIEFVKGYYDNPKVCALYIMAGTVDDVPKLQPHPGLEKKEEEEEEEEYDEGSNLKKQTNKNRVQSGPRTPNPYASDNSSLMFPILVAFGVFIPTLFCLCRL
binding [3]: binds
binding [4]: binds

B3: GORAB (protein, UniProt Q5T7V8 1-369)
chain: MAQGWAGFSEEELRRLKQTKDPFEPQRRLPAKKSRQQLQREKALVEQSQKLGLQDGSTSLLPEQLLSAPKQRVNVQKPPFSSPTLPSHFTLTSPVGDGQPQGIESQPKELGLENSHDGHNNVEILPPKPDCKLEKKKVELQEKSRWEVLQQEQRLMEEKNKRKKALLAKAIAERSKRTQAETMKLKRIQKELQALDDMVSADIGILRNRIDQASLDYSYARKRFDRAEAEYIAAKLDIQRKTEIKEQLTEHLCTIIQQNELRKAKKLEELMQQLDVEADEETLELEVEVERLLHEQEVESRRPVVRLERPFQPAEESVTLEFAKENRKCQEQAVSPKVDDQCGNSSSIPFLSPNCPNQEGNDISAALAT
binding [3]: binds
binding [4]: binds

Second part, the molecule after the results:

binding [1]: binds
binding [2]: binds
Molecule: CLPP (from UniProt Q16740 57-277)

binding [1]: binds
binding [2]: binds
Molecule: GOLGB1 (from UniProt Q14789 1-3259)

binding [3]: binds
binding [4]: binds
B2: VIPAS39 (protein, UniProt Q9H9C1 1-493)
chain: MNRTKGDEEEYWNSSKFKAFTFDDEDDELSQLKESKRAVNSLRDFVDDDDDDDLERVSWSGEPVGSISWSIRETAGNSGSTHEGREQLKSRNSFSSYAQLPKPTSTYSLSSFFRGRTRPGSFQSLSDALSDTPAKSYAPELGRPKGEYRDYSNDWSPSDTVRRLRKGKVCSLERFRSLQDKLQLLEEAVSMHDGNVITAVLIFLKRTLSKEILFRELEVRQVALRHLIHFLKEIGDQKLLLDLFRFLDRTEELALSHYREHLNIQDPDKRKEFLKTCVGLPFSAEDSAHIQDHYTLLERQIIIEANDRHLESAGQTEIFRKHPRKASILNMPLVTTLFYSCFYHYTEAEGTFSSPVNLKKTFKIPDKQYVLTALAARAKLRAWNDVDALFTTKNWLGYTKKRAPIGFHRVVEILHKNNAPVQILQEYVNLVEDVDTKLNLATKFKCHDVVIDTYRDLKDRQQLLAYRSKVDKGSAEEEKIDALLSSSQIRWKN

binding [3]: binds
binding [4]: binds
B4: SYAP1 (protein, UniProt Q96A49 1-352)
chain: MFRGLSSWLGLQQPVAGGGQPNGDAPPEQPSETVAESAEEELQQAGDQELLHQAKDFGNYLFNFASAATKKITESVAETAQTIKKSVEEGKIDGIIDKTIIGDFQKEQKKFVEEQHTKKSEAAVPPWVDTNDEETIQQQILALSADKRNFLRDPPAGVQFNFDFDQMYPVALVMLQEDELLSKMRFALVPKLVKEEVFWRNYFYRVSLIKQSAQLTALAAQQQAAGKEEKSNGREQDLPLAEAVRPKTPPVVIKSQLKTQEDEEEISTSPGVSEFVSDAFDACNLNQEDLRKEMEQLVLDKKQEETAVLEEDSADWEKELQQELQEYEVVTESEKRDENWDKEIEKMLQEEN

— paper PMC9365812
